The values below come from PubChem BioAssay AID248 (DTP/NCI, 2004).

The list shows only some results of the screen, not a fair sample: it is rich in T/C values a quarter to a half above the control, in often repeated tests (any T/C) and in doses without a T/C. Further doses and runs are listed elsewhere. T/C is the treated group as % of the vehicle group. Some entries give survivors of the animals treated and no T/C: the source holds a T/C of zero for them, seemingly a mark for toxic or unscored doses. Some doses without a T/C left all or most animals alive at the check, yet need not have been tolerated: the source hardly ever lists a survival T/C far under the control, and the zero likely stands for such cases as well. Survivors were counted at the toxicity check, usually on the fifth day, unless a day is given; later deaths do not show. Schedule codes are those of the source, taken here to give the interval after Q, in days (D) or hours (H), and the number of doses after X. Some entries were tested several times; their values stand side by side, smallest first. Some schedules carry Z or #; the key to these is not given.

For this assay, the system named is L1210 leukemia ip in BDF1 mice, survival T/C. In words: NCI In Vivo Anticancer Drug Screen. Data for tumor model L1210 Leukemia (intraperitoneal) in B6D2F1 (BDF1) mice. Particulars: T/C endpoint: mean survival time, higher T/C = longer survival.
Setting [1] is: dose: 400.0 mg/kg/injection, schedule: Q04DX002 (ip), vehicle: saline with Tween-80.
[2] abbreviates: dose: 400.0 mg/kg/injection, schedule: Q01DX001 (ip), vehicle: carboxymethylcellulose (CMC).
The mark [3] stands for this setting: dose: 400.0 mg/kg/injection, schedule: Q04DX002 (ip), vehicle: Klucel (hydroxypropylcellulose) (HPC).
[4] abbreviates: dose: 200.0 mg/kg/injection, schedule: Q04DX002 (ip), vehicle: Klucel (hydroxypropylcellulose) (HPC).
[5] abbreviates: dose: 50.0 mg/kg/injection, schedule: Q01DX009 (ip), vehicle: Klucel (hydroxypropylcellulose) (HPC).
The mark [6] stands for this setting: dose: 100.0 mg/kg/injection, schedule: Q01DX009 (ip), vehicle: Klucel (hydroxypropylcellulose) (HPC).
The mark [7] stands for this setting: dose: 200.0 mg/kg/injection, schedule: Q01DX009 (ip), vehicle: Klucel (hydroxypropylcellulose) (HPC).
[8] abbreviates: dose: 300.0 mg/kg/injection, schedule: Q01DX001 (ip), vehicle: saline.
The mark [9] stands for this setting: dose: 400.0 mg/kg/injection, schedule: Q04DX003 (ip), vehicle: saline with Tween-80.
The mark [10] stands for this setting: dose: 400.0 mg/kg/injection, schedule: Q01DX009 (ip), vehicle: Klucel (hydroxypropylcellulose) (HPC).
Where [11] appears, read: dose: 400.0 mg/kg/injection, schedule: Q01DX001 (ip), vehicle: saline.

For `COc1ccc([N+](=O)[O-])cc1NS(=O)(=O)c1ccc(Cl)c([N+](=O)[O-])c1`, the survivor count runs as follows: (dose: 100.0 mg/kg/injection, schedule: Q01DX009 (ip), vehicle: other) 6 of 6; (dose: 200.0 mg/kg/injection, schedule: Q01DX009 (ip), vehicle: other) 2 of 3 and 4 of 6; (dose: 200.0 mg/kg/injection, schedule: Q01DX009 (ip), vehicle: saline with Tween-80) 3 of 3; (dose: 400.0 mg/kg/injection, schedule: Q01DX009 (ip), vehicle: other) 6 of 6; (dose: 400.0 mg/kg/injection, schedule: Q01DX009 (ip), vehicle: saline with Tween-80) 2 of 3.

Regarding `O=N[O-].O=N[O-].[Co].[NH2-].[NH2-].[NH2-].[NH2-]`, the survivor count is on record as 1 of 3 (dose: 200.0 mg/kg/injection, schedule: Q04DX002 (ip), vehicle: saline with Tween-80) and 0 of 3 under setting [1].

As to `O=C(CCN1CC1)Nc1ccc(Cc2ccc(NC(=O)CCN3CC3)cc2)cc1`, the survivor count was 3 of 6 (dose: 100.0 mg/kg/injection, schedule: Q04DX003 (ip), vehicle: Klucel (hydroxypropylcellulose) (HPC)); 0 of 6 (dose: 200.0 mg/kg/injection, schedule: Q04DX003 (ip), vehicle: Klucel (hydroxypropylcellulose) (HPC)); 0 of 6 (dose: 400.0 mg/kg/injection, schedule: Q04DX003 (ip), vehicle: Klucel (hydroxypropylcellulose) (HPC)).

Regarding `Cc1nc(SCc2ccc(Cl)cc2)nc(N2CC2)c1Br`, for the setting “dose: 133.0 mg/kg/injection, schedule: Q01DX Z (ip), vehicle: methylcellulose (MC)”, the survivor count was 6 of 6.

In the case of `CC1(C)C(=O)Nc2ccccc2N1C(=O)CN1CC2CCC(CC2)C1`, the survivor count (dose: 50.0 mg/kg/injection, schedule: Q01DX009 (ip), vehicle: saline) is on record as 6 of 6.

Take `c1ccn2nncc2c1`: the survivor count under setting [2] is 0 of 4.

With `Cc1c(C(=O)O)c(C(=O)O)c(C)n1-c1ccccc1C(=O)O` (tested in a mixture with another compound), the survivor count (dose: 400.0 mg/kg/injection, schedule: Q04DX003 (ip), vehicle: saline) is recorded as 6 of 6.

As to `CCO/C=N/c1oc(-c2ccccc2)nc1C#N`, under setting [3], the survivor count is 1 of 3.

As to `CCN(CC)CCOc1cc(C)ccc1C`, the survivor count (dose: 200.0 mg/kg/injection, schedule: Q04DX003 (ip), vehicle: saline) is on record as 1 of 6.

With `Clc1ccc(SCSc2nc3ccccc3s2)cc1`, the survivor count is 3 of 3 (dose: 100.0 mg/kg/injection, schedule: Q04DX002 (ip), vehicle: Klucel (hydroxypropylcellulose) (HPC)); 3 of 3 under setting [4]; 3 of 3 under setting [3].

For `C/C(=N/N=C(N)N)c1cccnc1`, the survivor count (dose: 240.0 mg/kg/injection, schedule: Q01DX Z (ip), vehicle: saline) is 0 of 6 and the survivor count (dose: 480.0 mg/kg/injection, schedule: Q01DX Z (ip), vehicle: saline) is 0 of 6.

As to `O=C(C(Cl)Cl)C(Cl)Cl`, the survivor count runs as follows: (dose: 20.0 mg/kg/injection, schedule: Q01DX001 (ip), vehicle: carboxymethylcellulose (CMC)) 3 of 6; (dose: 40.0 mg/kg/injection, schedule: Q01DX001 (ip), vehicle: carboxymethylcellulose (CMC)) 3 of 6; (dose: 50.0 mg/kg/injection, schedule: Q01DX001 (ip), vehicle: carboxymethylcellulose (CMC)) 0 of 6; (dose: 100.0 mg/kg/injection, schedule: Q01DX001 (ip), vehicle: carboxymethylcellulose (CMC)) 0 of 6; (dose: 200.0 mg/kg/injection, schedule: Q01DX001 (ip), vehicle: carboxymethylcellulose (CMC)) 0 of 6; under setting [2], 0 of 6.

In the case of `CCOC(=O)/C(C#N)=C(/C)C1CC1`, the survivor count is on record as 1 of 6 under setting [5]; 0 of 6 under setting [6]; 0 of 6 under setting [7]; 0 of 6 (dose: 300.0 mg/kg/injection, schedule: Q01DX001 (ip), vehicle: carboxymethylcellulose (CMC)).

As to `C=C(C)C1(CCCC)C(=O)NC(=O)NC1=O`, the survivor count under setting [8] is listed as 3 of 6.

Regarding `CCCCCCCCCCCCSC1=NCCN1`, the survivor count (dose: 175.0 mg/kg/injection, schedule: Q04DX003 (ip), vehicle: Klucel (hydroxypropylcellulose) (HPC)) is reported as 2 of 6 and the survivor count (dose: 350.0 mg/kg/injection, schedule: Q04DX003 (ip), vehicle: Klucel (hydroxypropylcellulose) (HPC)) is listed as 0 of 6.

With `C[N+](C)(C)CCSc1ccc2c3c(cccc13)C(=O)c1ccccc1-2`, the survivor count (dose: 100.0 mg/kg/injection, schedule: Q04DX002 (ip), vehicle: saline) is listed as 1 of 3; the survivor count (dose: 200.0 mg/kg/injection, schedule: Q04DX002 (ip), vehicle: saline) is given as 0 of 3; the survivor count (dose: 400.0 mg/kg/injection, schedule: Q04DX002 (ip), vehicle: saline) is 0 of 3.

On to `Cc1cc(C(=O)/C=C(\C(=O)c2ccccc2)c2ccccc2)ccc1Cl`, for which the survivor count by setting is: under setting [4], 1 of 3; under setting [3], 0 of 3.

With `CCN(CCO)Cc1cccc2ccccc12`, the survivor count runs as follows: (dose: 200.0 mg/kg/injection, schedule: Q04DX003 (ip), vehicle: saline with Tween-80) 6 of 6; under setting [9], 1 of 6.

In the case of `CCSC(=S)SCC(=O)O`, under setting [9], the survivor count was 6 of 6.

Turning to `Cc1nonc1C(=O)NN`, the survivor count was 0 of 3 under setting [4] and 0 of 3 under setting [3].

As to `O=C(O)Cc1ccc2c3c(ccc([N+](=O)[O-])c13)CC2`, the survivor count under setting [9] is 6 of 6.

Turning to `C[N+](C)(C)C1C2(CCCCC2)NC(=O)C12CCCCC2` (centres undefined), the survivor count was 0 of 6 (dose: 150.0 mg/kg/injection, schedule: Q01DX001 (ip), vehicle: saline) and 0 of 6 under setting [8].

Turning to `Nc1ccccc1C(=O)N/N=C/c1ccc(Cl)cc1Cl`, the survivor count under setting [10] is 4 of 6.

Turning to `CC1CCC2(C)CCC3(C)C(=CCC4C5(C)CCC(OC(=O)c6ccccc6)C(C)(C)C5CCC43C)C2C1C` (centres undefined), the survivor count (dose: 400.0 mg/kg/injection, schedule: Q01DX001 (ip), vehicle: saline with Tween-80) is recorded as 6 of 6.

In the case of `Cn1c(=O)cc(C=Nc2ccc(O)cc2)c2ccccc21`, the survivor count under setting [11] is listed as 6 of 6.

Take `COC(=O)C1CCCN(C)C1c1c[nH]c2ccccc12` (centres undefined): the survivor count (dose: 300.0 mg/kg/injection, schedule: Q01DX001 (ip), vehicle: other) is 0 of 6.

Take `NC(N)=NC(N)=NCCCc1ccccc1`: the survivor count runs as follows: (dose: 100.0 mg/kg/injection, schedule: Q01DX001 (ip), vehicle: other) 2 of 6; (dose: 200.0 mg/kg/injection, schedule: Q01DX001 (ip), vehicle: other) 1 of 6; (dose: 400.0 mg/kg/injection, schedule: Q01DX001 (ip), vehicle: other) 1 of 6; under setting [11], 0 of 6.

In the case of `CCCN(CCC)P(c1ccccc1)N(CCC)CCC`, the survivor count under setting [1] was 1 of 3.

With `O=Nc1ccc(O)c(Cl)c1`, the survivor count (dose: 400.0 mg/kg/injection, schedule: Q01DX001 (ip), vehicle: Klucel (hydroxypropylcellulose) (HPC)) is on record as 3 of 3.

`O=C(O)CS(=O)(=O)Cc1ccccc1`: the survivor count under setting [9] is reported as 0 of 6.

As to `C[N+](C)(C)c1ccc(/C(C#N)=N/O)cc1`, the survivor count was 5 of 6 under setting [5], 0 of 6 under setting [6], 0 of 6 under setting [7] and 0 of 6 under setting [10].

For `OC(C(F)(F)F)C(F)(F)Cl` (centres undefined), the survivor count by setting is: (dose: 200.0 mg/kg/injection, schedule: Q01DX001 (ip), vehicle: saline) 1 of 4; under setting [11], 1 of 4.
